In paper PMC12979858:
Results are given in words; binding and its absence hold for the method and conditions named. In cells and extracts the contact can be indirect. Binding calls can cover weak binding; strength is not graded here. Sequences can lack the tags named with a protein.

Biological target: WDR47 C-terminal WD40 repeats-containing region (Flag-tagged fragment) (mouse)
Experiment: co-IP; HEK293T cells exogenously expressing the tagged proteins; high-salt lysis buffer (1% NP-40, 500 mM NaCl, 50 mM HEPES pH 7.8, 5 mM EDTA); anti-GFP or anti-Flag agarose beads, 4 C, 4 h; immunoblot

- binding: binds
B1: SPEF1 (tagged, expressed in HEK293T) (protein, UniProt Q99JL1 1-234)
chain: MESSVDEEALHQLYLWVDNIPLSRPKRNLSRDFSDGVLVAELIKFYFPKMVEMHNYVPANSLQQKLSNWGHLNRKVLNKLNFSVPDDVMRKIAQCSPGVVELVLIPLRQRLEERQRRQKLGVGSLQELAPQDSSGYMDMGLPQKVRGEGAPALGEQLREGRPLASRPPGYNQALQGDPSFVLQIAEKEQELLASQETVQVLQMKVKRLEHLLQLKNVRIDDLSRRLQQAERKQR
